{"source": "patent US7772216B2", "about": "“Protein kinase and phosphatase inhibitors and methods for designing them” (The Research Foundation of State University of New York, priority 2001, dated 2010)", "key": {"PKA": {"molecular_target": "PKA (Homo sapiens, UniProt P17612)", "experiment": "Cellular Mimetic PKA assay", "format": "biochemical", "conditions": "assay without Kemptamide, Cellular Mimetic solutions, FIG. 4", "from_the_text": "The boronic acid inhibitors 21-24 have two Arg's in their sequence also and therefore will bind to the phosphocellulose paper in addition to Kemptamide (although not as consistently or completely due to one less positive charge). Consequently, when analyzed as inhibitors, the amount of phosphorylated Kemptamide produced was not only counted, but also the amount of phosphorylated inhibitor simultaneously produced (e.g. see 26 below). The net result is that distorted IC50 curves are obtained which show net “stimulation” at higher inhibitor concentrations in some cases. […] The underlying substrate behavior of these “inhibitors” makes an accurate measurement of their inhibition potency impossible with the current assay. However, it does appear from the data that homologating the boronic acid functionality out with only CH2 groups (homologations with boronic acid non-peptide Src inhibitors may also be carried out) decreases the binding affinity and ability to function as a substrate.\nPhosphorylated Kemptamide is SEQ. ID. No. 6. Phosphorylated 22 is SEQ. ID. No. 4. […] The graphs show their respective rates and levels of phosphorylation with the typical loss of initial velocity kinetics with time (due to substrate depletion and end product inhibition), analogous to a standard L-Ser substrate such as Kemptamide. […]"}, "pp60^c-src": {"molecular_target": "pp60^c-src (Homo sapiens, UniProt P12931)", "experiment": "Cellular Mimetic Src assay (RR-SRC phosphorylation)", "conditions": "increasing ATP concentration up to 1 mM"}}, "note": "For part of these data: Part of at least one peptide drawing is inferred or uncertain, most often the ends. For part of these data: At least one compound was matched to its structure with a doubt left. Starred links: 1 amine or outer side, 2 acyl side, 3 side chain; linkers in the order of their positions; H or OH if unused. Non-standard residues stand in square brackets, D forms with d. Residues, ends and D or L forms follow the SMILES beside them. X2 = O=C([C@@H](CB(O)O)N[*:1])[*:2]; X1 = O=C([C@H](CB(O)O)N[*:1])[*:2]"}
{"smiles": "CC[C@H](C)[C@H](NC(=O)[C@H](CB(O)O)NC(=O)CNC(=O)[C@H](CCCNC(=N)N)NC(=O)[C@H](CCCNC(=N)N)NC(C)=O)C(N)=O", "note": "[Compound 21] (Ac-RRG[X1]I-NH2)", "values": [{"measurement": "phosphorylation by PKA (substrate behaviour)", "setting": "PKA", "value": "substrates for PKA"}]}
{"smiles": "OB(O)c1ccc2ccccc2c1", "note": "[Compound 27, 2-naphthalene boronic acid]", "values": [{"measurement": "mode of inhibition with respect to ATP", "setting": "pp60^c-src", "value": "not ATP-competitive"}, {"measurement": "mode of inhibition with respect to ATP", "setting": "pp60^c-src; listed as drawing 40", "value": "NON-ATP COMPET- ITIVE"}]}
{"smiles": "O=S(=O)(O)Nc1ccc2ccccc2c1", "note": "[Compound 28]", "values": [{"measurement": "mode of inhibition with respect to ATP", "setting": "pp60^c-src", "value": "not ATP-competitive"}, {"measurement": "mode of inhibition with respect to ATP", "setting": "pp60^c-src; listed as drawing 41", "value": "NON-ATP COMPET- ITIVE"}]}
{"smiles": "CC[C@H](C)[C@H](NC(=O)[C@@H](CB(O)O)NC(=O)CNC(=O)[C@H](CCCNC(=N)N)NC(=O)[C@H](CCCNC(=N)N)NC(C)=O)C(N)=O", "note": "[Compound 22] (Ac-RRG[X2]I-NH2)", "values": [{"measurement": "phosphorylation by PKA (substrate behaviour)", "setting": "PKA", "value": "substrates for PKA"}]}
